{
  "source": "patent US20240009212A1",
  "about": "“PHOSPHAPLATIN COMPOUNDS AS THERAPEUTIC AGENTS SELECTIVELY TARGETING HIGHLY GLYCOLYTIC TUMOR CELLS AND METHODS THEREOF” (Promontory Therapeutics Inc., priority 2020, published 2024)",
  "assay_type_in_all_cases": "cell-based, mouse",
  "key": {"[1]": {"tested_on": "L929, L929dt, L929^dt and dt^L929 cells", "experiment": "Total ROS production (2HE oxidation, flow cytometry)", "settings": "10 μM, all cell lines tested, maximum between 48 and 72 h"}, "[2]": {"tested_on": "L929dt and L929^dt cells", "experiment": "Mitochondrial ROS production (MitoSOX), sensitive cells", "settings": "10 μM PT-112, sensitive cells", "description": "Total ROS production and mitochondrial membrane potential were simultaneously measured using a FACScalibur flow cytometer. Pretreated cells with PT-112 were incubated with DiOC6 at 20 nM (Molecular Probes, Madrid) and DHE at 2 μM (Molecular Probes, Madrid) for 30 min at 37° C. For specific mitochondrial ROS production, cells were incubated with MitoSOX™ (5 μM, ThermoFisher, Rockford, USA) for 30 minutes at 37° C.\nIn order to obtain more evidence about the mechanism of action of PT-112, its effect on ROS production was analyzed. First, a time-course determination of total ROS generation by detection of 2HE oxidation was performed by flow cytometry. […] To complete this study, specific mitochondrial ROS production upon PT-112 treatment using the MitoSOX™ reagent was determined.\nHowever, this effect can be due to direct reactivity of the thiol group with Pt, inactivating the cytotoxic potential of PT-112, and not to the elimination of ROS generation. This hypothesis was confirmed by incubating PT-112 with GSH during 1 h in the absence of cells and adding this GSH-treated PT-112 to cells, showing no cytotoxicity (FIG. 6). […] Since PT-112-induced ROS generation seems to be concentrated in mitochondria, the mitochondria-specific ROS scavenger MitoTEMPO was used. Cells (3×10^4) were seeded in a 96-well plate in phenol red-free medium and were incubated with 100 μM of MitoTEMPO for 2 h. […]"}, "[3]": {"tested_on": "L929 or dt^L929 cells", "experiment": "Mitochondrial ROS production (MitoSOX), OXPHOS-competent cells", "settings": "10 μM PT-112, MitoSOX"}, "[4]": {"tested_on": "L929 and dt^L929 cells", "experiment": "Western blot of p62 and LC3BI/II, OXPHOS-competent cells", "settings": "PT-112 treatment"}},
  "note": "At least one compound was matched to its structure with a doubt left.",
  "data": [
    {"smiles": "O=P1(O)OP(=O)(O)[O][Pt]2([NH][C@@H]3CCCC[C@H]3[NH]2)[O]1", "note": "(stereo partly drawn) [PT-112, (R,R)-1,2-cyclohexanediamine-(pyrophosphato)platinum(II)]", "values": [
      {"measurement": "total ROS production", "setting": "[1]", "value": "moderate increase"},
      {"measurement": "mitochondrial ROS production", "setting": "[2]", "value": "massively increased"},
      {"measurement": "mitochondrial ROS production", "setting": "[3]", "value": "only barely"},
      {"measurement": "conversion of LC3BI to LC3BII", "setting": "[4]", "value": "clear conversion of LC3BI to LC3BII"}
    ]}
  ]
}
